Experiment [1] addresses His-tagged mouse Sox2 (mouse) (UniProt P48432). The experiment is described as follows: pull-down; 4 μg His-Sox2 on Ni-NTA resin, pre-incubated with 1% BSA, 400 ng purified F-Ash2l or F-Wdr5 added, 4°C overnight; 50 mM Tris pH 7.4, 300 mM NaCl, 10% glycerol, 0.1% NP40, 30 mM imidazole; anti-FLAG western blot; both purified. On the technique in general: In western blotting, separated proteins are transferred to a membrane and probed.

Protein sequences, listed by entry. Tags and fused reporters are not part of them. Lines headed by an entry give the natural chain unless they say otherwise; changes in a name come on top. Chains listed by the source or under a name are the forms on record and can include a tag or linker. Residues count along the entry.
UniProt P48432: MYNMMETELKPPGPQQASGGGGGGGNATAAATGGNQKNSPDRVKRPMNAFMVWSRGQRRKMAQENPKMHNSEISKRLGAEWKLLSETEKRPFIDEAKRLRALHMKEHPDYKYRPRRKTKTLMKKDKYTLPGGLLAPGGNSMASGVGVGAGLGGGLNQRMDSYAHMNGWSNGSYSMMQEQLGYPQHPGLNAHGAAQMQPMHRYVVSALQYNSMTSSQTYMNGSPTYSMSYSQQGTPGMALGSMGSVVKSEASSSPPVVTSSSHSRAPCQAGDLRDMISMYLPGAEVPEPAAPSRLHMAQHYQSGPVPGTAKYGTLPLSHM
FLAG-HA-tagged Sox2 (1–123): residues 1-123 of P48432
UniProt Q60793: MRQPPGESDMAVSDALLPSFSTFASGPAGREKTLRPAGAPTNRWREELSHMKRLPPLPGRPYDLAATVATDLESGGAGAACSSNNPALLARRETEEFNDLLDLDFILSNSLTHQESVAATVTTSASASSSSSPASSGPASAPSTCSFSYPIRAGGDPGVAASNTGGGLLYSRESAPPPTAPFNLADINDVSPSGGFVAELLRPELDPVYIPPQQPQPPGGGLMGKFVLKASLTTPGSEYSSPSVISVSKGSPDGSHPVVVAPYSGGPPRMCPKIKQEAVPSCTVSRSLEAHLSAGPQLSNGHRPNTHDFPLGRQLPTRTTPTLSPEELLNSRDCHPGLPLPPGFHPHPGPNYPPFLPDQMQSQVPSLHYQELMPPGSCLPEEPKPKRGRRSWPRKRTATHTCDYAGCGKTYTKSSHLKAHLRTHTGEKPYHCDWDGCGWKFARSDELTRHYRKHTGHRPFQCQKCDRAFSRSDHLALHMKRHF
UniProt P20263: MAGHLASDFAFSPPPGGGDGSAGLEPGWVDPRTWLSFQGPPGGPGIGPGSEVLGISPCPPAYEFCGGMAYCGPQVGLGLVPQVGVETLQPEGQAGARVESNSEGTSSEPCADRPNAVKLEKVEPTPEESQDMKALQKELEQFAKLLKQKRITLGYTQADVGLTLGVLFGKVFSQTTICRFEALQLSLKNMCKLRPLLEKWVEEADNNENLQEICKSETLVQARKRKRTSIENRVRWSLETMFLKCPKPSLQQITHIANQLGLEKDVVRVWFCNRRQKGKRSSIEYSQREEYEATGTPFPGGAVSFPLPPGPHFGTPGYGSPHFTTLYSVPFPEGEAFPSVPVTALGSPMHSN
UniProt P01108: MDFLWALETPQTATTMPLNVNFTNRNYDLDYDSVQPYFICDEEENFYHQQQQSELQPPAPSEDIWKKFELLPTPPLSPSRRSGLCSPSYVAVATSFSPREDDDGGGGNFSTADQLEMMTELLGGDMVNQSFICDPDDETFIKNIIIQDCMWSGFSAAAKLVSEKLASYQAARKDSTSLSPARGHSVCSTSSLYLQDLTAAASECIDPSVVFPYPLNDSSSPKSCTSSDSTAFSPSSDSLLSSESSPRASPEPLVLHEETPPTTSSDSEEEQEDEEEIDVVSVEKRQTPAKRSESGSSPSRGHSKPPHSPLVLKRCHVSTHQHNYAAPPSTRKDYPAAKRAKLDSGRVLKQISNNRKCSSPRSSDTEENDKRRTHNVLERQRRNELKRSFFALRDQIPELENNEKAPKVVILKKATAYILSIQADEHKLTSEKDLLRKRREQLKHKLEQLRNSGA
UniProt Q9UBL3: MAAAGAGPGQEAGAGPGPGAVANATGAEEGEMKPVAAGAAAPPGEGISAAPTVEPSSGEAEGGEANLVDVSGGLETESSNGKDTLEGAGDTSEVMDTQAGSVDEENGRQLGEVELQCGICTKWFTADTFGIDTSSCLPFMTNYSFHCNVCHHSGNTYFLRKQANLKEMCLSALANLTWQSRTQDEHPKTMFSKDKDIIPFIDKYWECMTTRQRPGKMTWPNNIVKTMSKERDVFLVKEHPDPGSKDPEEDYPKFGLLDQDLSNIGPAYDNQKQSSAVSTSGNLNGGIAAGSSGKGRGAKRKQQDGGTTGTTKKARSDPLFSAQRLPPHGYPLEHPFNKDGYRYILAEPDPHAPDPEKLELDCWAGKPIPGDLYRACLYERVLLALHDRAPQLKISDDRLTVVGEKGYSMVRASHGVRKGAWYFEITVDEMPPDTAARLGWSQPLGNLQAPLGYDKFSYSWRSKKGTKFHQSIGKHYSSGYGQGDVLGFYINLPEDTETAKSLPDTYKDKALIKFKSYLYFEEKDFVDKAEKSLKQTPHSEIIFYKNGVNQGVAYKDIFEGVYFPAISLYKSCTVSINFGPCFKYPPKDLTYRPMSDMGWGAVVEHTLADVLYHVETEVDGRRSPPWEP
UniProt Q91X20: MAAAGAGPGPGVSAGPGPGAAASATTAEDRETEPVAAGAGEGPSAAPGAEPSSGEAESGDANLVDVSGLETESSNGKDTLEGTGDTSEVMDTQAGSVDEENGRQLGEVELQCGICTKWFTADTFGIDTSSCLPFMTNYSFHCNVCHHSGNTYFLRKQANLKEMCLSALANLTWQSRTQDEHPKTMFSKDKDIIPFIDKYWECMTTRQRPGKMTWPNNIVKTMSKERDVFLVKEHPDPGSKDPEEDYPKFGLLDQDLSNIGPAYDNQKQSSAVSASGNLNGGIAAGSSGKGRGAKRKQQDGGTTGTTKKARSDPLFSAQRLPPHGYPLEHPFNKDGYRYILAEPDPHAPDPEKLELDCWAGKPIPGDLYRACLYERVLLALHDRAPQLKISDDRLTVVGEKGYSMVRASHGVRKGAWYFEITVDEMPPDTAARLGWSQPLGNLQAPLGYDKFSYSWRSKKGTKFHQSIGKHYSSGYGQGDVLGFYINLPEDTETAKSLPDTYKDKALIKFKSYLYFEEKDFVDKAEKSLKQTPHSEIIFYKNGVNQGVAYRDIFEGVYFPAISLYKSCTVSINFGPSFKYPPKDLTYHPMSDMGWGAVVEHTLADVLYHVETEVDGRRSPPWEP

The target in experiment [2] is FLAG-HA-tagged Sox2 (1–123) (mouse) (UniProt P48432). The experiment is described as follows: co-IP; 293T cells transiently transfected with FLAG-HA-tagged Sox2 truncation mutants; anti-FLAG M2 resin, 4°C overnight, BC150 (150 mM KCl), 0.05% NP40; western blot of endogenous subunits.
The target in experiment [3] is FLAG-HA-tagged mouse Sox2 (stably expressed in Flp-In T-REx-293 cells) (mouse) (UniProt P48432). In words: co-IP; Flp-In T-REx-293 cells stably expressing one FLAG-HA-tagged mouse factor, doxycycline 48 h; anti-FLAG M2 resin, 4°C overnight, BC150 (150 mM KCl), 0.05% NP40; western blot of endogenous subunits.
In experiment [4] the target is FLAG-HA-tagged mouse Klf4 (stably expressed in Flp-In T-REx-293 cells) (mouse) (UniProt Q60793). The description is as above.
Experiment [5] deals with FLAG-HA-tagged mouse Oct4 (stably expressed in Flp-In T-REx-293 cells) (mouse) (UniProt P20263). The experiment is described as above.
Experiment [6] addresses FLAG-HA-tagged mouse Sox2 (lentiviral, expressed in MEFs) (mouse) (UniProt P48432). The experiment is described as follows: co-IP; MEFs infected with lentivirus for one FLAG-HA-tagged reprogramming factor, doxycycline 48 h; anti-FLAG M2 resin, 4°C overnight, BC150 (150 mM KCl), 0.05% NP40; western blot of endogenous subunits.
Experiment [7] has as its target FLAG-HA-tagged mouse Myc (lentiviral, expressed in MEFs) (mouse) (UniProt P01108). Described as above.

No constants are given. Whether binding was seen depends on the method and setting. For some of these results: Binding seen in cells or lysates may run through a third protein. Some results given as binding are weak or reduced against the parent protein; the word gives no strength.

For the substance “FLAG-tagged Ash2l (from UniProt Q9UBL3 1-628)”, in experiment [1], the binding entry is reported as “binds”.

Consider “endogenous Ash2l (293 and 293T cells) (from UniProt Q9UBL3 1-628)”, for which the binding entry in experiment [2], in experiment [3], in experiment [4] and in experiment [5] was “binds” throughout.

Consider “endogenous Ash2l (MEFs) (from UniProt Q91X20 1-623)”, for which the binding entry in experiment [6] and in experiment [7] was “binds” in each case.

The values above are taken from article PMC4686221.
